From patent US20220340682A1 (Sanofi, published 2022)
No constants are given. Whether binding was seen depends on the method and setting. Some binding calls cover weakened binding; strength is not graded here.

How the values were obtained:
[1] = biological target: T1, cCEACAM5 A3B3, M. fascicularis CEACAM5 A3-B3 domain (499-688) (Macaca fascicularis); test: ELISA on coated recombinant CEACAM5 protein or domain, anti-mouse IgG-HRP, OD 450 nm
T1 sequence: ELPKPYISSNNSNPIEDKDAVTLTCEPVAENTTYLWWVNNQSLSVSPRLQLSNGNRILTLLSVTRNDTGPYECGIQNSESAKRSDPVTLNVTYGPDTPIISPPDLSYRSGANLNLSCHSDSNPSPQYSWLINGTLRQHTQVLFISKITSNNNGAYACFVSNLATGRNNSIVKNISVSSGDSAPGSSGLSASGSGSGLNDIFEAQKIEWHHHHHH

[2] = biological target: cCEACAM5, M. fascicularis CEACAM5 ECD (35-688) (Macaca fascicularis); test: as above
[3] = biological target: cCEACAM5, M. fascicularis CEACAM5 ECD (35-688) (Macaca fascicularis); test: immunohistochemistry on FFPE pellets of transfected HEK293 cells
[4] = biological target: T1, cCEACAM5 A3B3, M. fascicularis CEACAM5 A3-B3 domain (499-688) (Macaca fascicularis); test: ELISA on coated recombinant domains

Measured: binding

B1: antibody MAb2 (antibody, mouse IgG1, V domains shown)
VH: EVQLQESGGVLVKPGGSLKLSCAASGFVFSSYDMSWVRQTPEKRLEWVAYISSGGGITYFPDTVQGRFTVSRDNAKNTLYLQMNSLKSEDTAIYYCAAHYFGSSGPFAYWGQGTLVTVSA
VL: DIQMTQSPASLSASVGETVTITCRASENIFSYLAWYQQKQGKSPQLLVYNTKTLAEGVPSRFSGSGSGTQFSLKINSLQPEDFGSYYCQHHYGTPFTFGSGTKLEIK
notes: Murine IgG1, kappa; Rows are tied to the label as printed
binds: [1] | [2] | [3] | [4]
